# About 7,700 (2.3%) of roughly 330,000 compounds were called active. The shares of active, inactive and inconclusive entries below differ from those in the screen. Calls come from the whole dose curve; as a rule, active = well fitted inhibition curve with a large enough effect; inconclusive = small, poorly fitted or top-dose-only effect, or effect the other way; inactive = flat fitted curve, though single readings scatter. A potency beside an inconclusive call is a rough fit, not a confirmed value.
# Assay: qHTS screen for small molecules that inhibit ELG1-dependent DNA repair in human embryonic kidney (HEK293T) cells expressing luciferase-tagged ELG1; note: nearly all actives have a fitted effect of over 55% in size
# Settings: HEK293T ELG1-luciferase reporter, luminescence, 16 h, DNA damage induced by 5-fluorouridine; activity change, negative = inhibition: at 46.1 µM (top of the series)
# Procedure, shortened: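 In this reporter screen, reduction of luminescence relative to DMSO vehicle indicated activity. Compounds and 5-fluorouridine were added together to 2,000 cells per well, incubated for 16 hr at 37 °C, then developed with ONE-Glo.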
# % is set by controls: 0 for no effect and ±100 for the full control effect; potency is the fitted concentration of half-maximal effect.
SMILES,"activity change, negative = inhibition",Potency
CN(C)S(=O)(=O)c1cccc(NC(=O)CCNC(=O)Nc2ccccc2)c1,inactive: -17.3%,–
Cc1ccc(CNC(=O)COC(=O)c2nc(-c3ccccc3)oc2C)cc1,–,"inconclusive: 29.1 µM [inhibitor, single point]"
Nc1ccc(C(=O)c2ccccc2C(=O)O)cc1Cl,–,"inconclusive: 0.92 µM [inhibitor, single point]"
O=C(OCC(=O)N1CCN(C(=O)c2ccco2)CC1)c1ccccc1C(=O)c1ccc(Cl)cc1,–,"inconclusive: 18.4 µM [inhibitor, partial curve, poor fit]"
COc1cccc(NC(=O)Nc2cc(C(=O)O)ccc2N2CC3CC(C2)c2cccc(=O)n2C3)c1 (stereo not given),inactive: -0.937%,–
C#C[C@]1(O)CCC2C3CCC4=CC(=O)CC[C@@H]4C3CC[C@@]21C (stereo not given in full),inactive: 0.793%,–
O=C(COc1ccc(Br)cc1CNC1CCCCC1)NCCc1ccccc1,–,"inconclusive: 13 µM [inhibitor, partial curve]"
COc1ccccc1/C=C/C=C1\Oc2c(ccc(O)c2CN(C)C)C1=O,inactive: 0%,–
CCCCc1c(O)nc2ccccn2c1=O,inactive: 7.69%,–
C/C(=N\NC(=O)C(O)(c1ccccc1)c1ccccc1)c1ccc(C)o1,inactive: -12.6%,–
O=C1C=C(c2cccc3c2Oc2ccccc2S3)C[C@@H](c2ccc(Cl)cc2)C1,–,active: 20.6 µM
O=C(Nc1ccc(F)cc1)c1ccccc1,–,"inconclusive: 18.4 µM [activator, partial curve]"
Cc1cc(C(=O)COc2ccccc2Cl)c(C)n1C1CC1,–,"inconclusive: 18.3 µM [activator, partial curve, poor fit]"
Cn1nc(-c2ccc(C(=O)N3CCN(Cc4ccccc4)CC3)cc2)c2ccccc2c1=O,–,"inconclusive: 23.1 µM [inhibitor, single point]"
COC(=O)c1c(NC(C)=O)sc(C(=O)N2CCOCC2)c1C,–,"inconclusive: 0.092 µM [activator, full curve, poor fit]"
Cc1ccc(C(C[N+](=O)[O-])c2c(C)cc3ccccn23)cc1 (stereo not given),–,"inconclusive: 25.9 µM [inhibitor, single point]"
COC(=O)Nc1ccc(S(=O)(=O)Nc2ccc(C(=O)O)cc2)cc1,inactive: 3.28%,–
Cc1ccc(NC(=O)CN2CCOCC2)c(Br)c1,–,"inconclusive: 22.4 µM [activator, partial curve, poor fit]"
N#Cc1cc2cc3c(cc2nc1N1CCCCC1)OCCO3,–,"inconclusive: 2.31 µM [activator, full curve]"
Cc1csc(SCc2ccccc2C(=O)O)n1,–,"inconclusive: 13 µM [activator, partial curve]"

# Arranged by formula weight (low to high): some entries from above
SMILES,"activity change, negative = inhibition",Potency
C/C(=N\NC(=O)C(O)(c1ccccc1)c1ccccc1)c1ccc(C)o1,inactive: -12.6%,–
O=C1C=C(c2cccc3c2Oc2ccccc2S3)C[C@@H](c2ccc(Cl)cc2)C1,–,active: 20.6 µM
O=C(COc1ccc(Br)cc1CNC1CCCCC1)NCCc1ccccc1,–,"inconclusive: 13 µM [inhibitor, partial curve]"
